B1: murine RAD51AP1 S309A fused to mCherry (protein, UniProt Q8C551 1-337)
chain: MVRPTRNRKPINYSQFEDSGNDSDDDFISSSTPVNKSKTVPKVLKQDKPKPNLKNLQKEEVLPTEPPKKRVALDDKVFQRGLEVALALSVKELPTLTNQVKKSKEKSTDKQGKEKTENTGKPPRVSNCSVASDDVEDLDKITEEGDASSVEGERKSPSQAKAPRRRAPSEGSDGSSANDTESESATGEGSESDPDFDESKESDEDFGVRRSKESKKKTVQKKPAGEKKERKSKPKCEASVTSVDPAPAAIKSGSPSLPQAVGLPSEATRKPAIMCSPSAESKRPKWVPPAASGSRNSSSNALAGTPAKAPSQSLRLGLSRLAPVKRLHPSATSSQVR
B2: wild-type murine RAD51AP1 fused to mCherry (protein, UniProt Q8C551 1-337)
chain: B1 chain with A309S
B3: murine RAD51AP1 S309D fused to mCherry (protein, UniProt Q8C551 1-337)
chain: B1 chain with A309D
B4: murine RAD51AP1 T305D fused to mCherry (protein, UniProt Q8C551 1-337)
chain: B1 chain with T305D, A309S
B5: murine RAD51AP1 T305D/S309D fused to mCherry (protein, UniProt Q8C551 1-337)
chain: B1 chain with T305D, A309D

The chains behind the UniProt entries cited, without tags or fusion partners.
UniProt Q08297: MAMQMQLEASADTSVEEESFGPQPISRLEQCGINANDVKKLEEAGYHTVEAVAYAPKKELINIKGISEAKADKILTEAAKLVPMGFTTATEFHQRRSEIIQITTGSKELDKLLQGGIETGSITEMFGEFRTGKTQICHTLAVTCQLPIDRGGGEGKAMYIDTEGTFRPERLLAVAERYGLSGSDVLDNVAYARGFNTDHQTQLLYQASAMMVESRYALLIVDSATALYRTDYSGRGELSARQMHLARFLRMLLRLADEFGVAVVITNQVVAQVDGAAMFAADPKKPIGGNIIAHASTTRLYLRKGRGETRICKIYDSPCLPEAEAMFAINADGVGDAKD

Substitutions are numbered along the chain they refer to. Names may count otherwise. These are yes or no findings as the source states them, for the method shown. Binding seen in cells or lysates may run through a third protein. Some entries that bind do so weakly or less than the wild type. Tags and fused reporters may be left off the sequences shown.

The target in the assay is murine RAD51 with a C-terminal EGFP tag (mouse) (UniProt Q08297). The experiment in a line: co-IP; GFP-tagged RAD51 co-expressed with mCherry-fused RAD51AP1 (WT or mutant) in 293T/293FT cells; reciprocal immunoprecipitation (lanes 1-10 and lanes 11-20 of Fig. 7e) on protein A-agarose beads with antibody, EBN buffer (0.5% NP40, 150 mM NaCl), 5 h, 4 °C, immunoblot; asynchronous cells, or cells arrested in mitosis with nocodazole (WT only).
With B1, the binding entry is “binds”.
For the molecule B2, the binding entry is “binds”.
As for B3, the binding result is on record as “binds”.
Consider B4, for which the binding entry was “binds”.
In the case of B5, the binding entry was “binds weakly”.

The values are drawn from PMC7605441.
